Results as given in paper PMC5841295.
No constants are given. Whether binding was seen depends on the method and setting. For part of these data: In cells and extracts the contact can be indirect. Some entries that bind do so weakly or less than the wild type. Sequences can lack the tags named with a protein.

By UniProt entry, the sequences of proteins in these tests, tags left out.
UniProt Q07812: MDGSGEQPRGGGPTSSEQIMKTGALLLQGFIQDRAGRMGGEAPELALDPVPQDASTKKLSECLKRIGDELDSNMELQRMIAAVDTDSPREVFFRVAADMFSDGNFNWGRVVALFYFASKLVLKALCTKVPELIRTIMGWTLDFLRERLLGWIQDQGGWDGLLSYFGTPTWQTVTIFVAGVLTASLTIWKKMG

T1: HaloTag-Bid (UniProt P55957)
T1 sequence: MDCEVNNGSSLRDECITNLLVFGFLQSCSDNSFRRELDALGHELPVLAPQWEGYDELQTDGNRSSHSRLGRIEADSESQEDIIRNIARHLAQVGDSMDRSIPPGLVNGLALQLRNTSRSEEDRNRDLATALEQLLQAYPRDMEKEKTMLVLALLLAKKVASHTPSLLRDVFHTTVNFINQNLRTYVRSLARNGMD

T2: MBP-Bid-HA (UniProt P55957)
T2 sequence: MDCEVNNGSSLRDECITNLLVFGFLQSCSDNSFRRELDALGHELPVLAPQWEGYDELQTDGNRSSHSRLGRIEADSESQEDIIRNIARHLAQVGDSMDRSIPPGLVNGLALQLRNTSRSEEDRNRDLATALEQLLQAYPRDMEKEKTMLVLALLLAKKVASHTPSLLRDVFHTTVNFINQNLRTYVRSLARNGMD

B1: enhanced green fluorescent protein (EGFP)-fused PLEKHN1 (protein, UniProt Q494U1-1 1-611)
chain: MGNSHCVPQAPRRLRASFSRKPSLKGNREDSARMSAGLPGPEAARSGDAAANKLFHYIPGTDILDLENQRENLEQPFLSVFKKGRRRVPVRNLGKVVHYAKVQLRFQHSQDVSDCYLELFPAHLYFQAHGSEGLTFQGLLPLTELSVCPLEGSREHAFQITGPLPAPLLVLCPSRAELDRWLYHLEKQTALLGGPRRCHSAPPQRRLTRLRTASGHEPGGSAVCASRVKLQHLPAQEQWDRLLVLYPTSLAIFSEELDGLCFKGELPLRAVHINLEEKEKQIRSFLIEGPLINTIRVVCASYEDYGHWLLCLRAVTHREGAPPLPGAESFPGSQVMGSGRGSLSSGGQTSWDSGCLAPPSTRTSHSLPESSVPSTVGCSSQHTPDQANSDRASIGRRRTELRRSGSSRSPGSKARAEGRGPVTPLHLDLTQLHRLSLESSPDAPDHTSETSHSPLYADPYTPPATSHRRVTDVRGLEEFLSAMQSARGPTPSSPLPSVPVSVPASDPRSCSSGPAGPYLLSKKGALQSRAAQRHRGSAKDGGPQPPDAPQLVSSAREGSPEPWLPLTDGRSPRRSRDPGYDHLWDETLSSSHQKCPQLGGPEASGGLVQWI
B2: purified PLEKHN1 protein (protein, UniProt Q494U1-1 1-611)
chain: MGNSHCVPQAPRRLRASFSRKPSLKGNREDSARMSAGLPGPEAARSGDAAANKLFHYIPGTDILDLENQRENLEQPFLSVFKKGRRRVPVRNLGKVVHYAKVQLRFQHSQDVSDCYLELFPAHLYFQAHGSEGLTFQGLLPLTELSVCPLEGSREHAFQITGPLPAPLLVLCPSRAELDRWLYHLEKQTALLGGPRRCHSAPPQRRLTRLRTASGHEPGGSAVCASRVKLQHLPAQEQWDRLLVLYPTSLAIFSEELDGLCFKGELPLRAVHINLEEKEKQIRSFLIEGPLINTIRVVCASYEDYGHWLLCLRAVTHREGAPPLPGAESFPGSQVMGSGRGSLSSGGQTSWDSGCLAPPSTRTSHSLPESSVPSTVGCSSQHTPDQANSDRASIGRRRTELRRSGSSRSPGSKARAEGRGPVTPLHLDLTQLHRLSLESSPDAPDHTSETSHSPLYADPYTPPATSHRRVTDVRGLEEFLSAMQSARGPTPSSPLPSVPVSVPASDPRSCSSGPAGPYLLSKKGALQSRAAQRHRGSAKDGGPQPPDAPQLVSSAREGSPEPWLPLTDGRSPRRSRDPGYDHLWDETLSSSHQKCPQLGGPEASGGLVQWI

Assays:
HaloTag-Bid = target: T1, HaloTag-Bid; experiment: pull-down; HaloTag constructs transfected into PLEK-KO + EGFP-PLEK cells; 0.5 mg/mL lysate on Magne-HaloTag beads, 1 h at room temperature, HaloTag purification buffer (50 mM Hepes, 1 mM DTT, 1 mM EDTA, 1 mM EGTA, 0.05% NP-40); blot with GFP antibody
HaloTag-Bax = HaloTag-Bax (UniProt Q07812); experiment: as above
MBP-Bid-HA = target: T2, MBP-Bid-HA; experiment: pull-down; recombinant GST-Bax and MBP-Bid-HA applied to Glutathione sepharose 4B beads, washed with OG buffer (10 mM TrisHCl pH 7.4, 150 mM NaCl, 0.1% octyl glycoside); first elution with purified PLEKHN1 (and Bax) or control buffer, second elution with 30 mM reduced glutathione; both purified

| Binder | binding (HaloTag-Bid) | binding (HaloTag-Bax) | binding (MBP-Bid-HA) |
| --- | --- | --- | --- |
| B1 | binds | no binding |  |
| B2 |  |  | binds |
